This is one part of the list.
What follows are targets tested with C#Cc1cccc(Nc2ncnc3cc(OCCOC)c(OCCOC)cc23)c1 [erlotinib] (assay: log2 fold change, soluble protein after heating vs DMSO (PISA); higher = thermal stabilisation; K562 lysate, 10 uM; active = over 0.2 and 3.5 SD of the protein, either way, in both replicates (recomputed)).
Procedure, shortened: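 Quantification was by TMTpro 16plex LC-MS/MS with equalised channel sums, applied to the supernatant after 21,000xg for 90 min. Samples were crude K562 extract at 1 mg/mL protein in PBS pH 7.4 with 1 mM MgCl2, treated with 10 μM compound for 30 min, heated for 3 min across 48°C-58°C, pooled and brought to 0.5% NP-40 at 4°C. Values are log-two fold changes in thermal stability relative to solvent controls, from duplicates.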

Sequences of proteins named here, by UniProt entry; tags and fusion partners are left off. A change or cut given only in a name is not applied to a line headed by its entry.
UniProt P00352: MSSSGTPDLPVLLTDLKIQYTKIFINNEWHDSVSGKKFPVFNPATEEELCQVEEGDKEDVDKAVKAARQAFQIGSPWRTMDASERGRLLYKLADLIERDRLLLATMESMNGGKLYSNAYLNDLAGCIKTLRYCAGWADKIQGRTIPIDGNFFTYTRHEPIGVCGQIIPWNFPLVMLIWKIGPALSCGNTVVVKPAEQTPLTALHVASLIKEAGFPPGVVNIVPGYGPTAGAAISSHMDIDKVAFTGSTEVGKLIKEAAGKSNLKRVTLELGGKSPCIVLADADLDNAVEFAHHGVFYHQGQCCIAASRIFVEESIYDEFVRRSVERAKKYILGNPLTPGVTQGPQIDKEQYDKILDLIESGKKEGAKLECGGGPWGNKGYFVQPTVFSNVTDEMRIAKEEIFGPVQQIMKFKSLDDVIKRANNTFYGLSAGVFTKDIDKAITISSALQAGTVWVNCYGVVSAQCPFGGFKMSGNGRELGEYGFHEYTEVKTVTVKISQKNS
UniProt Q4KMQ2: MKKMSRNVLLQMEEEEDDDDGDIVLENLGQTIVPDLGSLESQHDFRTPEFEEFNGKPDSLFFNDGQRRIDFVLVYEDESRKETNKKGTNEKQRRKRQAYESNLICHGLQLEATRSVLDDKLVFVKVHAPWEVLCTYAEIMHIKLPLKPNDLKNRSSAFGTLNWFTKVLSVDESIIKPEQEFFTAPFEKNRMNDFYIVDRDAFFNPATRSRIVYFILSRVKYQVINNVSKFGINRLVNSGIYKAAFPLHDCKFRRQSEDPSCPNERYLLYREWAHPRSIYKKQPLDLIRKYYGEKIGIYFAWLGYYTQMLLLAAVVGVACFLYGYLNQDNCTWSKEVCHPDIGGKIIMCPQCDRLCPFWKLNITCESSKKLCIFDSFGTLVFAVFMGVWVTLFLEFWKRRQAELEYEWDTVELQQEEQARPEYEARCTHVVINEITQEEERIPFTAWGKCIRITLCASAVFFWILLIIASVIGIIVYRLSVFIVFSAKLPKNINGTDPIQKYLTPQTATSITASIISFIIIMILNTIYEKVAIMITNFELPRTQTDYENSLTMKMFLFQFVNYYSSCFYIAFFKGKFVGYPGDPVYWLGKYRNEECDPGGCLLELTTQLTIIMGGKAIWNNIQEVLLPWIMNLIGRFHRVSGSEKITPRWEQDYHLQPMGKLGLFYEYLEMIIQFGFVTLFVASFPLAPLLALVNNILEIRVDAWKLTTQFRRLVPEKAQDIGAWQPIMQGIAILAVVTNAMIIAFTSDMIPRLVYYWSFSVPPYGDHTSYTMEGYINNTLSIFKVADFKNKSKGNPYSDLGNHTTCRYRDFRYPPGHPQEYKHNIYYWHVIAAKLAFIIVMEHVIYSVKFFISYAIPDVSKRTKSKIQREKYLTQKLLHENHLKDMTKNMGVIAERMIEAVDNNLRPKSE
UniProt Q9BV10: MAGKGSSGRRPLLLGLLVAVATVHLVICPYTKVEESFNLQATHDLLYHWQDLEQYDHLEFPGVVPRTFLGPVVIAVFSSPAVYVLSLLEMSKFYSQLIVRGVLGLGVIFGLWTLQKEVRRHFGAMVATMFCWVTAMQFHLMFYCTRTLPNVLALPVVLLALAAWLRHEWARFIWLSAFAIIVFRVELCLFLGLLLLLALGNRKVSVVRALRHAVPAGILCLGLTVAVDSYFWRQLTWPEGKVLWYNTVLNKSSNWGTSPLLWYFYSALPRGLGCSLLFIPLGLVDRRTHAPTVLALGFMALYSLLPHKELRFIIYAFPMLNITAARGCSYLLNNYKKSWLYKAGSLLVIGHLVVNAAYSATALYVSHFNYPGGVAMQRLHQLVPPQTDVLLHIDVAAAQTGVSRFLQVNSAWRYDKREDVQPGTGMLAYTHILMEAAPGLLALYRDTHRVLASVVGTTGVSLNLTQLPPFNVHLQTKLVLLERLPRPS
UniProt Q8NB46: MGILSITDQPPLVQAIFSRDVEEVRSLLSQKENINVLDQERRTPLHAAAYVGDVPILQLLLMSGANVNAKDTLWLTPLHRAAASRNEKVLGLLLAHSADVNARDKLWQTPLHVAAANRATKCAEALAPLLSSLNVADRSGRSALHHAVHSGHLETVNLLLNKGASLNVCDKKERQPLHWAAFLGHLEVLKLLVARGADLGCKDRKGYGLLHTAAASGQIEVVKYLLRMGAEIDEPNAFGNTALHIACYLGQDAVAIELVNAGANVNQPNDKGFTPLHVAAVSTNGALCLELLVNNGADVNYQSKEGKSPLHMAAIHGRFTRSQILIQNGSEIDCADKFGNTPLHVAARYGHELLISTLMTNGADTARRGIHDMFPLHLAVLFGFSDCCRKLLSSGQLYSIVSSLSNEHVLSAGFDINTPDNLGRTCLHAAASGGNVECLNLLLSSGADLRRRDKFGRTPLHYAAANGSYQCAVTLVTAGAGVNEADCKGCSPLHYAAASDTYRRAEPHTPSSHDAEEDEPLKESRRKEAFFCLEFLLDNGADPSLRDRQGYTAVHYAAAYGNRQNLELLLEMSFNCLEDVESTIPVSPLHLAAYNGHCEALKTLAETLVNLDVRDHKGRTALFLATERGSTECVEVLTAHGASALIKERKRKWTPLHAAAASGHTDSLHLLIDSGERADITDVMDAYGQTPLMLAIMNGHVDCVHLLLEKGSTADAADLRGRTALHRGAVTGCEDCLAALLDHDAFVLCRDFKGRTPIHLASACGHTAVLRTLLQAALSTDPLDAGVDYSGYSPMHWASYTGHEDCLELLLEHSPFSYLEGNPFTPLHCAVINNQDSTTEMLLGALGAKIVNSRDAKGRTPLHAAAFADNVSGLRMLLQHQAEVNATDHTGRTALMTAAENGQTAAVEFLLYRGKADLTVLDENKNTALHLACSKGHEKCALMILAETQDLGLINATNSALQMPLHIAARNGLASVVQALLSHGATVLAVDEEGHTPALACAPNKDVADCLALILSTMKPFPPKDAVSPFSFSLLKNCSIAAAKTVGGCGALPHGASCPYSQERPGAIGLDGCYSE
UniProt P20073: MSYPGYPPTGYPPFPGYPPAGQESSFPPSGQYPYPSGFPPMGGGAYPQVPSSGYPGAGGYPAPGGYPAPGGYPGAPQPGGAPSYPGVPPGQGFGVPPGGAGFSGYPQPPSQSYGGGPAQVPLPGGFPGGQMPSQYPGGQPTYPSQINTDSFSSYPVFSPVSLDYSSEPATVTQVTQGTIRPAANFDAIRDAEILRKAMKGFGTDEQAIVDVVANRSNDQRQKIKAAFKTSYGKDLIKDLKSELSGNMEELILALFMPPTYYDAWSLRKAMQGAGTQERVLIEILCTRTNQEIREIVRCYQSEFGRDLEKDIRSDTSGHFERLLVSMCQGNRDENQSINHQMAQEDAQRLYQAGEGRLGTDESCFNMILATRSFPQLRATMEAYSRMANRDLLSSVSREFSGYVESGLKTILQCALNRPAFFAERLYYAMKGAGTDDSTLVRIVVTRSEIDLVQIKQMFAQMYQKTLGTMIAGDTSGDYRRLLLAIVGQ
UniProt P63010: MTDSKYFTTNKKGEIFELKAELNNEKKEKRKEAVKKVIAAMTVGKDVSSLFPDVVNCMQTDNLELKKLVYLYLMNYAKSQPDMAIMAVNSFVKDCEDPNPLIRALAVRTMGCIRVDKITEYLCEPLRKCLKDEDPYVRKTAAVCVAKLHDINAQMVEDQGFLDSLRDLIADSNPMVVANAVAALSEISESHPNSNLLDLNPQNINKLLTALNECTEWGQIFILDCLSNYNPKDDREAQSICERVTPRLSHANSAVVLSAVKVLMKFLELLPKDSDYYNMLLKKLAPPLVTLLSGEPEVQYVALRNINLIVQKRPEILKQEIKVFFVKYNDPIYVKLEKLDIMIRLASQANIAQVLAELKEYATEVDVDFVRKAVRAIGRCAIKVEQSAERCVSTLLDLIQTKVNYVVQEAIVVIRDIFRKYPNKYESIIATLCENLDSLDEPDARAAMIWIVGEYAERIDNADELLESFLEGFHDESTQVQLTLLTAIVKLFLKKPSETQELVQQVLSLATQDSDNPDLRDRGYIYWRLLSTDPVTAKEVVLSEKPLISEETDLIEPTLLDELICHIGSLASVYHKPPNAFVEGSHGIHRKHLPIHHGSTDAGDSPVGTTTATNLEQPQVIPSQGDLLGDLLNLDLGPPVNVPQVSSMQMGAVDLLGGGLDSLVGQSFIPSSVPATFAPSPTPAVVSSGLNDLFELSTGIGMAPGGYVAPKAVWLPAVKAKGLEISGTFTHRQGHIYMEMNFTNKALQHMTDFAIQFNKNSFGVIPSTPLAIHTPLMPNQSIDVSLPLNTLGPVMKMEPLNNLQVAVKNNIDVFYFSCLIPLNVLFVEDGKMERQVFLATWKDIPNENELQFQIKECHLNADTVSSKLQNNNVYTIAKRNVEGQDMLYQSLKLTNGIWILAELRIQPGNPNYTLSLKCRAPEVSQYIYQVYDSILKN
UniProt P08133: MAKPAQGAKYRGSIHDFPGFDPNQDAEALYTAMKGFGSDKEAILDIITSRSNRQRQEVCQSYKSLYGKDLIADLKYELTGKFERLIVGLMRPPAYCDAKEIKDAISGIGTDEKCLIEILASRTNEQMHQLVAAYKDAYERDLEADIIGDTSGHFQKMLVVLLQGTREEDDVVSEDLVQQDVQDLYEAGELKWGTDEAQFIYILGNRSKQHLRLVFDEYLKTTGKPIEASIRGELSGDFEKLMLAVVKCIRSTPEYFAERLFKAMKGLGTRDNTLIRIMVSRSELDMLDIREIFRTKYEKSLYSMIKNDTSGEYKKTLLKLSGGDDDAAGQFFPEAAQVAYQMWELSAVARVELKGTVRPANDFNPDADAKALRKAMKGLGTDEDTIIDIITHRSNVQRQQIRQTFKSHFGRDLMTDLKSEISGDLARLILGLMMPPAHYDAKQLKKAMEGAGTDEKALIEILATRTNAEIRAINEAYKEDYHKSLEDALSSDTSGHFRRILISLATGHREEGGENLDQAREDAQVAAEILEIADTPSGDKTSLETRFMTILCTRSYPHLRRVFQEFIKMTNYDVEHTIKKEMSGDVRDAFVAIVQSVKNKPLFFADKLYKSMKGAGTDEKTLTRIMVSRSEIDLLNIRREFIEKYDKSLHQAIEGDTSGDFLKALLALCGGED
UniProt P30038: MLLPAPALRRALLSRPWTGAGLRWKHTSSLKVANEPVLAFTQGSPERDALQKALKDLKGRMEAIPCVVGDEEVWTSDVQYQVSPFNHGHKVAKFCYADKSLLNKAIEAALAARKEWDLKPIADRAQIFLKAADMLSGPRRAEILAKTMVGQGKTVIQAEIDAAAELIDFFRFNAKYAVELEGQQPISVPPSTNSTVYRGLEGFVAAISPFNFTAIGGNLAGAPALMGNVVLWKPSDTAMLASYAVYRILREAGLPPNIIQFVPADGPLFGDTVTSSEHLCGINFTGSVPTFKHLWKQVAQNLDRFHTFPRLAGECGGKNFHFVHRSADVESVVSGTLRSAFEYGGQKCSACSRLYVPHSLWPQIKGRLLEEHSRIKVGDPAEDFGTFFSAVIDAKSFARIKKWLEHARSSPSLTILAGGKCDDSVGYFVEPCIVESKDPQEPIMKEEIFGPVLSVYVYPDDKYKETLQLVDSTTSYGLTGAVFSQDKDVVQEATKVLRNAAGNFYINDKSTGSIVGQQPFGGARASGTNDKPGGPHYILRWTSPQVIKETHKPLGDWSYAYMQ
UniProt P12429: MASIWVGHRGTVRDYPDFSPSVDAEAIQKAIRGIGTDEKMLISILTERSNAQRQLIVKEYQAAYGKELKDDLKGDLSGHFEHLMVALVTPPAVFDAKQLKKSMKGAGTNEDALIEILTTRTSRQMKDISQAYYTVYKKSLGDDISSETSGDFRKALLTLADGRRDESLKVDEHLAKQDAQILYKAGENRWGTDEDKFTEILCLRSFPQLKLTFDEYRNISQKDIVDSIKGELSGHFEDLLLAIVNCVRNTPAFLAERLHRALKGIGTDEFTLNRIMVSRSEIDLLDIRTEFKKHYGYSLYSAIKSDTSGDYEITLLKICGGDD
UniProt P09972: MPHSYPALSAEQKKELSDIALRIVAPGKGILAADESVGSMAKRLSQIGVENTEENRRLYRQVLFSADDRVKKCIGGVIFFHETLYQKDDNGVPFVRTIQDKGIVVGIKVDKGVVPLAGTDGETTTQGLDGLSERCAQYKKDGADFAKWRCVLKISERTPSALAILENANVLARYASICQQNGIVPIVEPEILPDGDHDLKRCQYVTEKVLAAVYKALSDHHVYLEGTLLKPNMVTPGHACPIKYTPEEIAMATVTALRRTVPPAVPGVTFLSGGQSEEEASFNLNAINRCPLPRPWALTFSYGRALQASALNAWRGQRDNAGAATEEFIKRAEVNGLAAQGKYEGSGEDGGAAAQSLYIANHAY

log2 fold change, inactive:
ANKRD54 (UniProt Q6NXT1) -0.005
AP1S2 isoform 2 (UniProt P56377) -0.072
ALDH1A1 (UniProt P00352) -0.048
ALDH6A1 (UniProt Q02252) -0.03
ANXA11 (UniProt P50995) 0.015
ANO6 (UniProt Q4KMQ2) -0.002
ALDH1B1 (UniProt P30837) -0.064
AP4E1 (UniProt Q9UPM8) 0.002
ALG12 (UniProt Q9BV10) 0.019
ANKFY1 isoform 4 (UniProt Q9P2R3) 0.023
ANKRD52 (UniProt Q8NB46) 0.056
AP3M2 (UniProt P53677) 0.055
ALYREF (UniProt Q86V81) -0.042
ANXA7 (UniProt P20073) -0.012
AKT1S1 isoform 3 (UniProt Q96B36) -0.107
AMPD3 isoform 4 (UniProt Q01432) 0
AP2B1 isoform 2 (UniProt P63010) 0.005
ALKBH8 isoform 4 (UniProt Q96BT7) -0.047
AP3M1 (UniProt Q9Y2T2) 0.003
ANXA2 isoform 2 (UniProt P07355) -0.009
ANXA6 (UniProt P08133) 0.019
ALDH4A1 (UniProt P30038) 0.039
AP2S1 (UniProt P53680) -0.032
ALDH2 (UniProt P05091) -0.048
ANKRD27 (UniProt Q96NW4) 0.087
ANP32B (UniProt Q92688) -0.03
ANXA3 (UniProt P12429) -0.014
ALDOC (UniProt P09972) -0.012
AP4B1 (UniProt Q9Y6B7) 0.021
ANLN (UniProt Q9NQW6) -0.006
AP1S1 (UniProt P61966) -0.016
ANGEL2 (UniProt Q5VTE6) -0.018
AP2A1 (UniProt O95782) -0.015

2 records drawn at random from the list so far, as already listed:
log2 fold change, inactive:
AP3M1 (UniProt Q9Y2T2) 0.003
AKT1S1 isoform 3 (UniProt Q96B36) -0.107

From the supplement of paper PMC10849652
